Results published in article PMC7862700.
Only a part is listed here, and it is no random draw. At the low end of the ranking, values are background and their order means little.

By UniProt entry, the sequences of proteins in these tests, tags left out. Where a name states a change or a piece, a line headed by the entry shows the natural chain unless it says otherwise.
UniProt Q01892: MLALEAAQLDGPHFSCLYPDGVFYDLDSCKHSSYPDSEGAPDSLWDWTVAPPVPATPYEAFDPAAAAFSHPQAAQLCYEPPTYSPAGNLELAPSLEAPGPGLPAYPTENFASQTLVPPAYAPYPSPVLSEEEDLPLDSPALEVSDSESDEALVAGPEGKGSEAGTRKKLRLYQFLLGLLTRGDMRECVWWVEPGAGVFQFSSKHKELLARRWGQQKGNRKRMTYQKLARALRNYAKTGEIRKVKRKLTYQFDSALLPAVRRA
UniProt P41161: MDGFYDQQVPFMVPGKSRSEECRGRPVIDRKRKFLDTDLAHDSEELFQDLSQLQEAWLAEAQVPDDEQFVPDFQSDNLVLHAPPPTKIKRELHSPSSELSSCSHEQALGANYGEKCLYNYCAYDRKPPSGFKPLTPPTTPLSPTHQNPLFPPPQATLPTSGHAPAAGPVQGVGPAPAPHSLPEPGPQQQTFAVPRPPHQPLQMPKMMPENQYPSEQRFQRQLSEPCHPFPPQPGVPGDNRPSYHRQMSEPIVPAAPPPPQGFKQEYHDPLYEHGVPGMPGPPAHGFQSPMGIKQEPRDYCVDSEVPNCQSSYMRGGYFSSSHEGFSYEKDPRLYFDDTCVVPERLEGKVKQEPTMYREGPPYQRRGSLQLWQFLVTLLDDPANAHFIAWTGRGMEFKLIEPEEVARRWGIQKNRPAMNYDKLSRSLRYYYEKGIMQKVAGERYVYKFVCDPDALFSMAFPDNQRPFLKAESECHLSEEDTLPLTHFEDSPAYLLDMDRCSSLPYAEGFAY
UniProt Q99607: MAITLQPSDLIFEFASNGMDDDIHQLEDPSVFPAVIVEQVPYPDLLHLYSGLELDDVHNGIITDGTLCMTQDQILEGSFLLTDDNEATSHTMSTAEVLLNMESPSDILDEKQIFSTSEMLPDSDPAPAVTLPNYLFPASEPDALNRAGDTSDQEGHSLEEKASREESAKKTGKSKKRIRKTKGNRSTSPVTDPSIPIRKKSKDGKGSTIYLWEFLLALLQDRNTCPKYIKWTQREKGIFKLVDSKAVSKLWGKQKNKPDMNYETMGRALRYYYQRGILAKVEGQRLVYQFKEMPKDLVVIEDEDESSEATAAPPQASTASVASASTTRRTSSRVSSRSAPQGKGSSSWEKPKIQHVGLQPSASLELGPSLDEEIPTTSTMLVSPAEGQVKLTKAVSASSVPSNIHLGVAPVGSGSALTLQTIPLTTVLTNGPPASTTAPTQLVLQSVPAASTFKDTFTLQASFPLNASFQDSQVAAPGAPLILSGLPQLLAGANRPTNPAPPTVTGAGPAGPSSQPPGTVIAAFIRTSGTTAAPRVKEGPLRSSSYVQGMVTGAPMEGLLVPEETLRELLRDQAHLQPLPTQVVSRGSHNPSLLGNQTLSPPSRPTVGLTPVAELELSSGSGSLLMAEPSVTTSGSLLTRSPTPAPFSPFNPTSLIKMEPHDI

Columns and labels:
Assay in all cases: DAPPL (digital affinity profiling via proximity ligation, sequencing)
Settings in all cases: 10 mM Tris-HCl pH 7.5, 50 mM NaCl, 1 mM DTT, 4% glycerol, room temperature, 30 min; GST-TFs on glutathione beads, 16-mer random dsDNA library, 0.1% …; high values mean tight binding; double strand, one strand shown; scale: fold enrichment (6-mer frequency, TF over GST control)
FLI1 = molecular target: T1, FLI1 (UniProt Q01543)
T1 sequence: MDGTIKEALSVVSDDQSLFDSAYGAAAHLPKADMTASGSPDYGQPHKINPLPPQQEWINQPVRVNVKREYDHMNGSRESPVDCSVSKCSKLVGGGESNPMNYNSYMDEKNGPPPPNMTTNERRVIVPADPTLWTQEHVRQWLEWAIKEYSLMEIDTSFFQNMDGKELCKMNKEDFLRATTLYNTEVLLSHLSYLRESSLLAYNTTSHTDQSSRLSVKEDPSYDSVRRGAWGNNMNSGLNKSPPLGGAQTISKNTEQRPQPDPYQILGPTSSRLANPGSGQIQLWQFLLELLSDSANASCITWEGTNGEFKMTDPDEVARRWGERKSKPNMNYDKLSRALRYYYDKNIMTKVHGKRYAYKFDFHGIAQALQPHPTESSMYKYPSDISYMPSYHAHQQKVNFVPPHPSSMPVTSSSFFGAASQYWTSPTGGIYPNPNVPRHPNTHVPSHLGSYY

EHF = molecular target: T2, EHF (UniProt Q9NZC4)
T2 sequence: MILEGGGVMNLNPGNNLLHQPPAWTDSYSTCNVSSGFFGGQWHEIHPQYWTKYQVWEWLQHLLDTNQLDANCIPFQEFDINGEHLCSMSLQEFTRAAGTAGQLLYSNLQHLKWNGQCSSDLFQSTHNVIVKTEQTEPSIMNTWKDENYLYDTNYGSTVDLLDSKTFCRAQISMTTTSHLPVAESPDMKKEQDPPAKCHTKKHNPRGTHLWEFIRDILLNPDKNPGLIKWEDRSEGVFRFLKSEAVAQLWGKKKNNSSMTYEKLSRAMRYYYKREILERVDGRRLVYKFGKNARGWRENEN

SPIB = SPIB (UniProt Q01892)
ETV5 = ETV5 (UniProt P41161)
ELF4 = ELF4 (UniProt Q99607)
ETV2 = molecular target: T3, ETV2 (UniProt O00321)
T3 sequence: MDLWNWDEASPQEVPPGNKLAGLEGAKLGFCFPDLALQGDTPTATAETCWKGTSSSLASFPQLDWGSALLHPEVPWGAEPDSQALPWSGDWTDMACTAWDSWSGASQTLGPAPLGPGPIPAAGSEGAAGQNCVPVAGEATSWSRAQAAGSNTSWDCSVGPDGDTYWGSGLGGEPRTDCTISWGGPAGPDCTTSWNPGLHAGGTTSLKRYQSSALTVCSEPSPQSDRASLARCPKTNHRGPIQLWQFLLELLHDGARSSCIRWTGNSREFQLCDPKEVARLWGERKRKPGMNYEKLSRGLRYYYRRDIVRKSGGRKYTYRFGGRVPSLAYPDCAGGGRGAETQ

ETV3L = molecular target: T4, ETV3L (UniProt Q6ZN32)
T4 sequence: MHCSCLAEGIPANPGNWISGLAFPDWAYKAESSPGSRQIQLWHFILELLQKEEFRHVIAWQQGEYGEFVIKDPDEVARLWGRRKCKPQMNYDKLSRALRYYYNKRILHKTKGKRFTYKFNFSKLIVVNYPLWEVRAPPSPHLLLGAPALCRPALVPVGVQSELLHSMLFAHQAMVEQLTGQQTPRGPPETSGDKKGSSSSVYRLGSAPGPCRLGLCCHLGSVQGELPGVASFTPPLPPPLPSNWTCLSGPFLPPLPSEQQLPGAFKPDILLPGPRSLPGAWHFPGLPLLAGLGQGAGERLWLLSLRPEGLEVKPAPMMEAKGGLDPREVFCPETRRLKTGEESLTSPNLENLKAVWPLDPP

Sequence	binding signal (FLI1)	binding signal (EHF)	binding signal (SPIB)	binding signal (ETV5)	binding signal (ELF4)	binding signal (ETV2)	binding signal (ETV3L)
AGGCTG	0.697	0.657	0.588	0.646	0.665	0.732	0.71
CGGTCC	0.926	0.96	0.968	0.991	0.979	0.896	0.959
ATCGAG	0.87	0.832	0.832	0.855	0.906	0.784	0.942
TGAGTA	0.436	0.486	0.436	0.454	0.414	0.422	0.408
AGACGT	0.487	0.446	0.421	0.462	0.464	0.418	0.425
GGGGAC	0.487	0.439	0.455	0.441	0.45	0.474	0.425
GGGCGG	0.376	0.486	0.452	0.48	0.438	0.415	0.426
TCGGCA	0.687	0.718	0.707	0.733	0.725	0.784	0.677
TCAGGA	0.834	0.808	0.838	0.853	0.823	0.808	0.832
ATTGGA	0.902	0.98	0.943	0.891	0.918	0.832	0.871
CGGGTC	0.644	0.743	0.682	0.712	0.713	0.71	0.706
GAGTAA	0.563	0.568	0.562	0.574	0.555	0.525	0.517
GCGCTG	0.907	0.839	0.919	0.924	0.783	0.91	0.829
TGAGGA	0.691	0.708	0.666	0.667	0.664	0.644	0.66
CGCATC	0.793	0.906	0.945	0.901	0.849	0.772	0.895
GGTGTG	0.752	0.777	0.729	0.754	0.719	0.807	0.703
CAGCCG	0.66	0.693	0.633	0.61	0.687	0.603	0.69
CGCGAG	0.531	0.502	0.472	0.525	0.557	0.496	0.525
CACGGG	0.824	0.829	0.772	0.846	0.842	0.805	0.737

Looked up above.
Under binding signal (FLI1), GGGGAC shows 0.487
Under binding signal (EHF), GCGCTG shows 0.839
